Assay results as given in paper PMC4764564.
These are yes or no findings as the source states them, for the method shown. Binding seen in cells or lysates may run through a third protein. For some of these results: Binding can be weak; no strength is given. For some of these results: Tags and fused reporters may be left off the sequences shown.

T1: GST-MPP2 SH3-HOOK-GK domain (216-552) (mouse) (UniProt Q9WV34)
T1 sequence: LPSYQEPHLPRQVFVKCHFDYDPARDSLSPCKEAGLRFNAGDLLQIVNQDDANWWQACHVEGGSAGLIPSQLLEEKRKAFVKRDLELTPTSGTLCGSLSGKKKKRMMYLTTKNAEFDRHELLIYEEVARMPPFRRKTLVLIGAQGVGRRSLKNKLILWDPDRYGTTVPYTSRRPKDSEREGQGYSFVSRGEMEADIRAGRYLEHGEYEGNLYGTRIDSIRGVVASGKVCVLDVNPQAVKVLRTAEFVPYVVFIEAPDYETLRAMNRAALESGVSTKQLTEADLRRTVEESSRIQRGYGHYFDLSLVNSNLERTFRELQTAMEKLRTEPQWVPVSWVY

T2: GST-SAP97 SH3-HOOK-GK domain (577-927) (mouse) (UniProt Q811D0)
T2 sequence: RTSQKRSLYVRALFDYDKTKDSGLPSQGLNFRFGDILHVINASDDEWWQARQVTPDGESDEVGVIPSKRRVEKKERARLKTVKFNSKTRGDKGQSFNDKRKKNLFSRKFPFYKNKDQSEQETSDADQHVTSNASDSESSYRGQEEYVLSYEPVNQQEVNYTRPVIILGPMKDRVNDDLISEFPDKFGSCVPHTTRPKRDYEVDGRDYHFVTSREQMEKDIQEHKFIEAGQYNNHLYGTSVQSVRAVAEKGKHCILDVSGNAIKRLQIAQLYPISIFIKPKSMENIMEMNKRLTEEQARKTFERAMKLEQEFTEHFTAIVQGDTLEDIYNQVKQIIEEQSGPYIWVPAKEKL

T3: PDZ domain from MPP2 (mouse) (UniProt Q9WV34)
T3 sequence: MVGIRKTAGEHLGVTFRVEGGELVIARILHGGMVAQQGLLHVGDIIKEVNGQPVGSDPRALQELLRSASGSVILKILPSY


Key:
[1] = target: T1, GST-MPP2 SH3-HOOK-GK domain (216-552) (mouse); experiment: pull-down; GST-fusion baits bound from bacterial lysate to glutathione agarose beads and washed; incubated at 4°C overnight with bacterial cell lysate expressing the His-tagged prey; PWB (20 mM HEPES pH 7.8, 10% glycerol, 100 mM KCl, 0.1 mM EDTA, 0.1 mM DTT, 0.1% Igepal CA-630); blot probed with anti-His; only the target purified
[2] = target: T2, GST-SAP97 SH3-HOOK-GK domain (577-927) (mouse); experiment: as above
[3] = target: T3, PDZ domain from MPP2 (mouse); experiment: pull-down; PDZ domain from MPP2 tested with the N-terminal domain of SK2-L; told in the text only, no figure and no construct given
[4] = target: SK2-S plus SK2-L, co-expressed (SK2-containing channels); experiment: co-IP; HEK293 cells co-transfected; lysis in 20 mM HEPES pH 7.5, 150 mM NaCl, 10% glycerol, 2 mM EDTA, 1% beta-D-dodecyl maltoside; anti-SK2 (guinea pig), anti-GluA1 or control IgG with protein A/G agarose overnight at 4°C; Western blot

Row | binding [1] | binding [2] | binding [3] | binding [4] | Molecule
1 | binds | no binding | no binding | – | His-tagged N-terminal domain of SK2-L (67-273) (domain or fragment)
2 | – | – | – | binds | C8-MPP2 (protein, UniProt Q9WV34-1 1-552) MPVAATNSESAMQQVLDNLGSLPNATGAAELDLIFLRGIMESPIVRSLAKAHERLEETKLEAVRDNNLELVQEILRDLAELAEQSSTAAELARILQEPHFQSLLETHDSVASKTYETPPPSPGLDPTFSNQPVPPDAVRMVGIRKTAGEHLGVTFRVEGGELVIARILHGGMVAQQGLLHVGDIIKEVNGQPVGSDPRALQELLRSASGSVILKILPSYQEPHLPRQVFVKCHFDYDPARDSLSPCKEAGLRFNAGDLLQIVNQDDANWWQACHVEGGSAGLIPSQLLEEKRKAFVKRDLELTPTSGTLCGSLSGKKKKRMMYLTTKNAEFDRHELLIYEEVARMPPFRRKTLVLIGAQGVGRRSLKNKLILWDPDRYGTTVPYTSRRPKDSEREGQGYSFVSRGEMEADIRAGRYLEHGEYEGNLYGTRIDSIRGVVASGKVCVLDVNPQAVKVLRTAEFVPYVVFIEAPDYETLRAMNRAALESGVSTKQLTEADLRRTVEESSRIQRGYGHYFDLSLVNSNLERTFRELQTAMEKLRTEPQWVPVSWVY
